Data from publication PMC12373997.

Biological target: β-tubulin of porcine brain, in taxol-stabilized microtubules (porcine)
Experiment: cryo-EM structure; taxol-stabilized MTs (0.5 mg/ml) adsorbed on the grid, then repeated application of D. melanogaster GST-N-clamp (4 µM) in BRB80; 13-protofilament MTs, symmetry expansion and focused classification; AF2 model of the N-clamp rigid-body docked; both purified

binding: binds
B1: D. melanogaster Dgt6 (HAUS6 ortholog), N-clamp fragment with the CH domain (domain or fragment, UniProt Q9VAP2 1-280)
chain: MDRTIIAPWKAEEKEQSEKLHRKLQGLALVHPLPDELRKLIAWDMFLKPNQVAFVHVMHYLFRLLDPAEFKRRFFWPITDKKSEANFRSSTVEYLKHLNEKHQLHWANIKSYLVVMPGGMRFINFLLEFVGFVIQELIKQREKSLGLEAGTPNVSAKVMARQNAVMKEYASSYVVNLEENTALLRDKTQKIRRLMADLSADMGVPEEQLADDGFLDEFEATAALGVERVITQPTERKFDLEASLCGLKEAIDLFQVKQAENNQSKEAVEKALRGMRVLFD

Results are given in words; binding and its absence hold for the method and conditions named. A result given as binding can be weak or reduced; the word gives no strength.
